Laboratory results published in PubChem BioAssay AID540256 (National Center for Advancing Translational Sciences (NCATS), 2011).
Among all 300,000 compounds or so, about 3,700 (1.2%) were called active. This list was built around the results that the source calls inconclusive (neither active nor inactive); the mix of calls is not that of the screen. Calls come from the whole dose curve; tested in HEK293 cells. Where the call is inconclusive, the potency comes from a doubtful curve fit.

Experiment: qHTS for Inhibitors of binding or entry into cells for Lassa Virus; note: nearly all actives have a fitted effect of over 50% in size
Conditions: Lassa virus pseudotype entry inhibition, cell reporter; activity change, negative = inhibition: at 37.9 µM (top of the series) unless noted
% is set by controls: 0 for no effect and ±100 for the full control effect; potency is the fitted concentration of half-maximal effect.

SMILES	Potency	activity change, negative = inhibition
CCOC(=O)c1cc(-c2ccccc2)n(CC(=O)NCc2ccc(C)cc2)c1C	inconclusive: 3.55 µM [inhibitor, partial curve, poor fit]	
COc1cc(CN2CCN(C(=O)CC(C)C)CC2)cc(OC)c1OC		inactive: 6.92%
CCn1cc(C(=O)NCc2ccco2)c(=O)c2cc(S(=O)(=O)N3CCCCCC3)ccc21	inconclusive: 8.2 µM [inhibitor, partial curve]	
O=C(Cc1ccccc1)NCCSCc1ccc(Cl)cc1	inconclusive: 0.631 µM [inhibitor, partial curve, poor fit]	
O=C(O)c1cc(N/N=C/c2ccc3c(c2)OCCO3)ccc1Cl	active: 1.58 µM	
Cc1csc(NC(=O)c2ccccc2[N+](=O)[O-])n1		inactive: -2.81%
Cc1nn(Cc2ccc(Cl)cc2)c(C)c1NC(=O)CCCn1nc([N+](=O)[O-])c(Cl)c1C	inconclusive: 20.6 µM [inhibitor, partial curve, poor fit]	
CCN(CC)CCn1c(=N)n(CCOc2ccccc2Cl)c2ccccc21	inconclusive: 20 µM [inhibitor, single point]	
COc1ccc(C2=C(C)C(=O)N(Cc3ccc(C(=O)Nc4ccc(F)cc4C)cc3)S2(=O)=O)cc1	inconclusive: 0.562 µM [inhibitor, full curve, poor fit]	
CCOC(=O)Nc1nnc(Cc2ccc(Cl)c(Cl)c2)s1	inconclusive: 7.08 µM [inhibitor, partial curve, poor fit]	
COc1ccc(OCCC(=O)OCC(=O)NC(=O)NC(C)C)cc1	inconclusive: 0.891 µM [inhibitor, single point]	
COc1cccc(CN(C)C(=O)c2cc(S(=O)(=O)NC3CCCCC3)ccc2C)c1	inconclusive: 15.8 µM [inhibitor, single point]	
Cc1ccc(S(=O)(=O)N2CCN(C(=O)CN3CCCSc4ccccc43)CC2)cc1		inactive: -25.2%
CSc1cccc(NC(=O)CN(c2cc(C)ccc2C)S(C)(=O)=O)c1		inactive: -12.4%
O=C1CN(C(=O)c2ccc(S(=O)(=O)N3CCCCC3)cc2)C(c2ccc(F)cc2)c2cc(Cl)ccc2N1 (stereo not given)	inconclusive: 35.5 µM [inhibitor, single point]	
COc1cc(NS(=O)(=O)c2ccc(N/C=C(\C#N)c3nc4cc(Cl)ccc4o3)cc2)nc(OC)n1	inconclusive: 7.94 µM [inhibitor, partial curve]	
O=C(CSc1nc2c(c(=O)[nH]1)CCCC2)Nc1ccccc1C(F)(F)F		inactive: 1.19% [at 46.1 µM]
OCCCN=c1cc(-c2ccccc2)oc2ccc(Cl)cc12	inconclusive: 35.5 µM [inhibitor, single point]	
O=C(Nc1nc2ccccc2[nH]1)c1ccccc1OC(F)F	inconclusive: 6.31 µM [inhibitor, full curve, poor fit]	
CC1CCN(S(=O)(=O)c2cc(C(=O)NCc3ccc(N(C)C)cc3)n(C)c2)CC1		inactive: 1.89% [at 46.1 µM]
CC(=O)NCCC1CCN(C(=O)c2cc(COc3ccc(C)nc3)on2)CC1		inactive: -7.6% [at 46.1 µM]
COc1ccc(C(C)C)cc1S(=O)(=O)n1ccnc1C		inactive: 1.39%
C/C(=N\Nc1nc2ccccc2[nH]1)c1ccc(Cl)s1	inconclusive: 31.6 µM [inhibitor, single point]	
CCn1cc(C(=O)NCc2ccc3c(c2)OCO3)c(=O)c2cc(S(=O)(=O)N(C)C)ccc21	inactive	

SMILES	Potency	activity change, negative = inhibition
N[C@@H](Cc1cc(I)c(O)c(I)c1)C(=O)O		inactive: 16.2%
COc1cccc(/C=C/C(=O)Nc2ccccc2N2CCOCC2)c1	inconclusive: 25.1 µM [inhibitor, partial curve, poor fit]	
Cc1cc(C)n2nc(-c3ccsc3-n3c(C)ccc3C)cc2n1		inactive: 0.723%
Cc1ccc(N(C(=O)CNC(=O)c2ccco2)C(C(=O)NC2CCCC2)c2cccnc2)cc1 (stereo not given)	inconclusive: 3.55 µM [inhibitor, single point]	
Cc1cccc(N2C(=O)CN(Cc3sccc3C)C2=S)c1	inconclusive: 8.91 µM [inhibitor, partial curve, poor fit]	
CC(=O)NC(NC(=S)Nc1ccc(N=Nc2ccccc2)cc1)C(Cl)(Cl)Cl (stereo not given)	inconclusive: 29.1 µM [inhibitor, single point]	
CC(C)(C)c1ccc(OCC(=O)NNC(=S)NC(=O)c2ccco2)c(Br)c1	inconclusive: 8.91 µM [inhibitor, partial curve, poor fit]	
COc1ccccc1N(CC(O)COc1c(C)cc(C)cc1C)S(=O)(=O)c1ccccc1 (stereo not given)	inconclusive: 23.1 µM [inhibitor, single point]	
Brc1ccc(-c2cn3c(n2)SCC3)cc1	inconclusive: 2.82 µM [inhibitor, full curve]	
C/C(=N\Nc1ccc(C(F)(F)F)cn1)c1ccncc1	inconclusive: 1.26 µM [inhibitor, single point]	
S=C1NC2(CCCCC2)Cc2ccccc21	inconclusive: 5.62 µM [activator, single point]	
CCc1ccc(CNC(=O)c2cnc(N3CCCCC3)c3ccccc23)cc1	inconclusive: 17.8 µM [inhibitor, single point]	
CC1=NN(c2ccccc2)C(c2ccco2)C1 (stereo not given)		inactive: 23.1% [at 46.1 µM]
COc1cc(C(=O)NCc2ccc(C)cc2)ccc1OC(F)F	inconclusive: 14.1 µM [inhibitor, partial curve, poor fit]	
Cc1nc2c3cc(F)ccc3n(Cc3ccc(F)cc3)c2s1	inconclusive: 16.4 µM [inhibitor, single point]	
Cc1c(NC(=O)/C(=C/c2cccs2)c2cccs2)c(=O)n(-c2ccccc2)n1C		inactive: -5.16%
CCN1CCCC1CNS(=O)(=O)c1ccc(Cl)c(C(F)(F)F)c1 (stereo not given)	inconclusive: 22.4 µM [inhibitor, single point]	
CCOC(=O)c1c(C)n(Cc2ccc3c(c2)OCO3)c2ccc(O)cc12		inactive: 13.5%
O=[N+]([O-])c1ccc(Cl)c(S(=O)(=O)NCC2CCCO2)c1 (stereo not given)	inconclusive: 0.316 µM [inhibitor, partial curve, poor fit]	
COc1ccc(OC)c(S(=O)(=O)N2CCc3ccccc32)c1		inactive: 8.32%
Cc1ccccc1-c1noc(-c2ccc(N3CCC(C)CC3)c([N+](=O)[O-])c2)n1		inactive: 1.19% [at 46.1 µM]
CCCOC1CCCN(C(=O)c2ccc(OC3CCN(C(=O)CCOC)CC3)cc2)C1 (stereo not given)		inactive: 19.7%
CN(C)CCN(C(=O)C1=COCCO1)c1nc2ccc(Cl)cc2s1	inconclusive: 35.5 µM [inhibitor, single point]	

SMILES	Potency	activity change, negative = inhibition
CCOc1ccc(/C=C/C(O)=C2/C(=O)N(C)C3(C)CC2c2ccccc2O3)cc1OC (stereo not given)	active: 3.55 µM	
Cn1cnnc1SCc1ccccc1[N+](=O)[O-]	inconclusive: 35.5 µM [inhibitor, single point]	
Cc1ccc(S(=O)(=O)c2c(Nc3ccc(C)c(C)c3)sc(C(=O)c3ccc4c(c3)OCO4)c2N)cc1	inconclusive: 2.82 µM [inhibitor, full curve, poor fit]	
COc1ccc(-n2c(C)cc(/C=C(\C#N)C(=O)NCc3ccco3)c2C)cc1		inactive: -1.36%
Nc1ccccc1-c1ccc(Cl)cc1	inconclusive: 10 µM [inhibitor, partial curve]	
Cc1c(CN(C)C(=O)c2cc(-c3ccccc3)nc3ccc(Br)cc23)cnn1C	inconclusive: 7.08 µM [inhibitor, partial curve, poor fit]	
Cc1ccc(NC(=O)c2ccc(OC(=O)C(C)Oc3ccc(Cl)cc3C)cc2)cc1 (stereo not given)	inconclusive: 1.26 µM [activator, single point]	
Cc1nn(Cc2ccc(C(=O)O)o2)c(C)c1[N+](=O)[O-]		inactive: 17.6%
NS(=O)(=O)c1cccc(NC(=O)Nc2ccc(Cl)cc2)c1	inconclusive: 20 µM [activator, single point]	
Cc1cc(C(=O)CN2C(=O)c3ccccc3S2(=O)=O)c(C)n1-c1ccccc1	active: 1.58 µM	
O=C(Nc1ccc(F)cc1)c1cn(-c2ccccc2)nc1-c1ccncc1	inconclusive: 35.5 µM [inhibitor, single point]	
O=C1c2ccccc2C(=O)N1CCCCSc1nc2ccccc2c(=O)n1CCCN1CCOCC1	inconclusive: 5.62 µM [inhibitor, full curve, poor fit]	
Cc1csc2nc(-c3cccc(NS(C)(=O)=O)c3)cn12		inactive: 14.6% [at 46.1 µM]
O=C(NCC1CCCO1)C(c1ccc(F)cc1)N(Cc1ccc2c(c1)OCO2)C(=O)c1ccc(CN2CCOCC2)o1 (stereo not given)		inactive: -11.7% [at 46.1 µM]
CC(=O)c1ccc(NC(=O)/C(=C\c2ccc(F)cc2)NC(=O)c2ccco2)cc1		inactive: -1.39%
O=C(Nc1ccccc1)c1ccc(CSc2ccccn2)cc1	inconclusive: 35.5 µM [inhibitor, single point]	
COc1cccc(C2c3cc4c(cc3OC(N3CCCC3)C2C)OCO4)c1O (stereo not given)	inconclusive: 28.2 µM [inhibitor, partial curve, poor fit]	
O=C(CN1C(=O)/C(=C\c2cccs2)SC1=S)Nc1cccc(C(=O)O)c1		inactive: -17.6% [at 46.1 µM]
O=C(Nc1nc(-c2ccc(Cl)cc2)cs1)C1CCCO1 (stereo not given)		inactive: -1.74%
Cc1ccc(S(=O)(=O)NCc2c(-c3ccccc3)noc2C)cc1	inconclusive: 6.31 µM [activator, single point]	
COc1ccc(C(=O)Nc2nc(-c3nnn(-c4ccc(F)cc4F)c3C)ns2)cc1	inconclusive: 35.5 µM [inhibitor, single point]	
Cc1c(-c2ccc(Cl)cc2)oc(=O)c2c(N)n(-c3ccccc3)nc12		inactive: -27.4%

An excerpt of these results, field by field:
CC(=O)c1ccc(NC(=O)/C(=C\c2ccc(F)cc2)NC(=O)c2ccco2)cc1
  activity change, negative = inhibition: inactive: -1.39%
O=C(Nc1ccccc1)c1ccc(CSc2ccccn2)cc1
  Potency: inconclusive: 35.5 µM [inhibitor, single point]
COc1cccc(C2c3cc4c(cc3OC(N3CCCC3)C2C)OCO4)c1O (stereo not given)
  Potency: inconclusive: 28.2 µM [inhibitor, partial curve, poor fit]
O=C(CN1C(=O)/C(=C\c2cccs2)SC1=S)Nc1cccc(C(=O)O)c1
  activity change, negative = inhibition: inactive: -17.6% [at 46.1 µM]
